In PMC7402468:
Results are given in words; binding and its absence hold for the method and conditions named. Binding seen in cells or lysates may run through a third protein. Some entries that bind do so weakly or less than the wild type. Sequences can lack the tags named with a protein.

The chains behind the UniProt entries cited, without tags or fusion partners.
UniProt P51140: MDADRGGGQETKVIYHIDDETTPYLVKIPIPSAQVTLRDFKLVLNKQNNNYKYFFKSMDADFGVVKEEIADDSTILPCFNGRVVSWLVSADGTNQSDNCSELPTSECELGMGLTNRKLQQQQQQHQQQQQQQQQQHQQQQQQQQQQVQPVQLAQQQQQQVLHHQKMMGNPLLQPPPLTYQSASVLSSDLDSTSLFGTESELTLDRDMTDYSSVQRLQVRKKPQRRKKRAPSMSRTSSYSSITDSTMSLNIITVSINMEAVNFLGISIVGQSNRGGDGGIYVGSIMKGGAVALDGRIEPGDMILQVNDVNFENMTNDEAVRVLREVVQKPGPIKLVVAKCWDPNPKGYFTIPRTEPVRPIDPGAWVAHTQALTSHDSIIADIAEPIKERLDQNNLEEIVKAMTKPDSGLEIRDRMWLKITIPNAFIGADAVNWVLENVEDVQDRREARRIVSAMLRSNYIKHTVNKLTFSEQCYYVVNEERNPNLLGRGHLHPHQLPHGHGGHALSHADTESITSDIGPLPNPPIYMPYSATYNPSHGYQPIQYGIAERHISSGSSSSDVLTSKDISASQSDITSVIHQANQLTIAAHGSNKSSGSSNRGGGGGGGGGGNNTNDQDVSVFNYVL

T1: Myc-tagged Bride of Doubletime (Myc-Bdbt) (Drosophila) (UniProt Q9VDE4)
T1 sequence: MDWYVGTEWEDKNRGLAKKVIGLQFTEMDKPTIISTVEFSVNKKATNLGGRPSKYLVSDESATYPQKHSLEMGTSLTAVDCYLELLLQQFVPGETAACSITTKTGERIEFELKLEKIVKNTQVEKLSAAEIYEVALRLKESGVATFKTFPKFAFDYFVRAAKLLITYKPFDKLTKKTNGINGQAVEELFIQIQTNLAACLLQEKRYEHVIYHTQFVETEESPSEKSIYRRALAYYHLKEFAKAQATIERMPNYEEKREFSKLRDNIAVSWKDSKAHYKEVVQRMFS

T2: Myc-tagged DAnkrd49 (Myc-DAnkrd49) (Drosophila) (UniProt Q9V3Y0)
T2 sequence: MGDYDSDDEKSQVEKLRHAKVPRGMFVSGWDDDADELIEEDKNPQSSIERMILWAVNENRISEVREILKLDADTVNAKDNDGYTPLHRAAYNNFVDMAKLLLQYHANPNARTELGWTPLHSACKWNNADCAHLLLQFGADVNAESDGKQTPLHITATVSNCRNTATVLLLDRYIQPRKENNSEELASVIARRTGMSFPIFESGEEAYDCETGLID

T3: EGFP-tagged Bride of Doubletime (Bdbt-EGFP) (Drosophila) (UniProt Q9VDE4)
T3 sequence: T1 sequence

B1: Myc-tagged DAnkrd49 (Myc-DAnkrd49) (protein, UniProt Q9V3Y0 1-215)
chain: T2 sequence

Experiments:
[1] = biological target: T1, Myc-tagged Bride of Doubletime (Myc-Bdbt) (Drosophila); assay: co-IP; S2 cells transfected with Dsh-ECFP and either Myc-DAnkrd49 or Myc-Bdbt; immunoprecipitation with Myc antibody resin in RIPA buffer (50 mM Tris-HCl pH 7.5, 100 mM NaCl, 1% NP-40, 0.5% sodium deoxycholate, 0.1% SDS); western blot with anti-GFP
[2] = biological target: T2, Myc-tagged DAnkrd49 (Myc-DAnkrd49) (Drosophila); assay: as above
[3] = biological target: T3, EGFP-tagged Bride of Doubletime (Bdbt-EGFP) (Drosophila); assay: co-IP; Bdbt-EGFP and Myc-DAnkrd49 co-transfected into Drosophila S2 cells; immunoprecipitation with GFP rabbit serum in 50 mM Tris-HCl pH 7.5, 150 mM NaCl, 1% TritonX-100, protease inhibitors; western blot with anti-Myc

Row | Molecule | binding [1] | binding [2] | binding [3]
1 | Dishevelled-ECFP (Dsh-ECFP) (from UniProt P51140 1-623) | no binding | no binding | 
2 | B1 |  |  | binds
